PMC12140329
No constants are given. Whether binding was seen depends on the method and setting. In cells and extracts the contact can be indirect. These calls come from enrichment with a bait or labelling near it, and not all partners need be listed.

Sequences of proteins named here, by UniProt entry; tags and fusion partners are left off.
UniProt Q9P258: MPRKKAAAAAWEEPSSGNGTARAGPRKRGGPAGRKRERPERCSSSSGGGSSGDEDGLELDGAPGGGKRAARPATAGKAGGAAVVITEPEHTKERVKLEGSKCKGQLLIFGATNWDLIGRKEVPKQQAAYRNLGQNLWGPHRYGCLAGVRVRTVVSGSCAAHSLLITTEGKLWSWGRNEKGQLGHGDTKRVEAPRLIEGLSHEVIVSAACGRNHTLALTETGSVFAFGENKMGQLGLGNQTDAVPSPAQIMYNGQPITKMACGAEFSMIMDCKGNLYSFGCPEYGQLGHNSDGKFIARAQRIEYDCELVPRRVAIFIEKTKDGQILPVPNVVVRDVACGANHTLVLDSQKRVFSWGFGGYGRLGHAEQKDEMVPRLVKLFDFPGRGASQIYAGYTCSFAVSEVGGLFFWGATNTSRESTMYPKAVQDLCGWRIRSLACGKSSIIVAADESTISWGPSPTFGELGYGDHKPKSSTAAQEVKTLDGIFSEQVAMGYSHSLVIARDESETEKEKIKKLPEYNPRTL

Molecular target: myc-RCC2 (wild-type RCC2) (human) (UniProt Q9P258)
Assay: affinity purification with mass spectrometry; MDA-MB-231 transfected with myc-RCC2 for 48 h, MG132 at 25 mM for 3 h, immunoprecipitation with anti-myc antibodies, silver staining and mass spectrometry

| Binder | binding |
| --- | --- |
| NONO (protein, UniProt Q15233 1-471) MQSNKTFNLEKQNHTPRKHHQHHHQQQHHQQQQQQPPPPPIPANGQQASSQNEGLTIDLKNFRKPGEKTFTQRSRLFVGNLPPDITEEEMRKLFEKYGKAGEVFIHKDKGFGFIRLETRTLAEIAKVELDNMPLRGKQLRVRFACHSASLTVRNLPQYVSNELLEEAFSVFGQVERAVVIVDDRGRPSGKGIVEFSGKPAARKALDRCSEGSFLLTTFPRPVTVEPMDQLDDEEGLPEKLVIKNQQFHKEREQPPRFAQPGSFEYEYAMRWKALIEMEKQQQDQVDRNIKEAREKLEMEMEAARHEHQVMLMRQDLMRRQEELRRMEELHNQEVQKRKQLELRQEEERRRREEEMRRQQEEMMRRQQEGFKGTFPDAREQEIRMGQMAMGGAMGINNRGAMPPAPVPAGTPAPPGPATMMPDGTLGLTPPTTERFGQAATMEGIGAIGGTPPAFNRAAPGAEFAPNKRRRY | binds |
| HNRNPR (protein, UniProt O43390 1-633) MANQVNGNAVQLKEEEEPMDTSSVTHTEHYKTLIEAGLPQKVAERLDEIFQTGLVAYVDLDERAIDALREFNEEGALSVLQQFKESDLSHVQNKSAFLCGVMKTYRQREKQGSKVQESTKGPDEAKIKALLERTGYTLDVTTGQRKYGGPPPDSVYSGVQPGIGTEVFVGKIPRDLYEDELVPLFEKAGPIWDLRLMMDPLSGQNRGYAFITFCGKEAAQEAVKLCDSYEIRPGKHLGVCISVANNRLFVGSIPKNKTKENILEEFSKVTEGLVDVILYHQPDDKKKNRGFCFLEYEDHKSAAQARRRLMSGKVKVWGNVVTVEWADPVEEPDPEVMAKVKVLFVRNLATTVTEEILEKSFSEFGKLERVKKLKDYAFVHFEDRGAAVKAMDEMNGKEIEGEEIEIVLAKPPDKKRKERQAARQASRSTAYEDYYYHPPPRMPPPIRGRGRGGGRGGYGYPPDYYGYEDYYDDYYGYDYHDYRGGYEDPYYGYDDGYAVRGRGGGRGGRGAPPPPRGRGAPPPRGRAGYSQRGAPLGPPRGSRGGRGGPAQQQRGRGSRGSRGNRGGNVGGKRKADGYNQPDSKRRQTNNQQNWGSQPIAQQPLQQGGDYSGNYGYNNDNQEFYQDTYGQQWK | binds |
